The assay has as its target T1, Sbh1-HA (S. cerevisiae) (UniProt P52870).
T1 sequence: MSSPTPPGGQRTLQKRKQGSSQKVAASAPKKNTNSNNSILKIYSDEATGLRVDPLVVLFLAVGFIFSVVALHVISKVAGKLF
In words: co-IP; native co-IP from microsomes of WT and opi3Δ cells solubilised in 1% digitonin (50 mM Tris pH 7.5, 150 mM NaCl, 5 mM EDTA); anti-HA antibodies and Protein G beads overnight at 4 °C; blot with anti-Sec61 and anti-HA.

No constants are given. Whether binding was seen depends on the method and setting. In cells and extracts the contact can be indirect. Some results given as binding are weak or reduced against the parent protein; the word gives no strength. Tags and fused reporters may be left off the sequences shown.

B1: Sec61 (endogenous) (protein, UniProt P32915 1-480)
chain: MSSNRVLDLFKPFESFLPEVIAPERKVPYNQKLIWTGVSLLIFLILGQIPLYGIVSSETSDPLYWLRAMLASNRGTLLELGVSPIITSSMIFQFLQGTQLLQIRPESKQDRELFQIAQKVCAIILILGQALVVVMTGNYGAPSDLGLPICLLLIFQLMFASLIVMLLDELLSKGYGLGSGISLFTATNIAEQIFWRAFAPTTVNSGRGKEFEGAVIAFFHLLAVRKDKKRALVEAFYRTNLPNMFQVLMTVAIFLFVLYLQGFRYELPIRSTKVRGQIGIYPIKLFYTSNTPIMLQSALTSNIFLISQILFQKYPTNPLIRLIGVWGIRPGTQGPQMALSGLAYYIQPLMSLSEALLDPIKTIVYITFVLGSCAVFSKTWIEISGTSPRDIAKQFKDQGMVINGKRETSIYRELKKIIPTAAAFGGATIGALSVGSDLLGTLGSGASILMATTTIYGYYEAAAKEGGFTKNLVPGFSDLM
With B1, the binding result is on record as “binds”.

The record behind these values is article PMC6572771.
